Laboratory results taken from US20070134663A1.
Results are given in words; binding and its absence hold for the method and conditions named. In cells and extracts the contact can be indirect. Some binding calls cover weakened binding; strength is not graded here.

Protein sequences, listed by entry. Tags and fused reporters are not part of them. Residues count along the entry.
UniProt Q04206: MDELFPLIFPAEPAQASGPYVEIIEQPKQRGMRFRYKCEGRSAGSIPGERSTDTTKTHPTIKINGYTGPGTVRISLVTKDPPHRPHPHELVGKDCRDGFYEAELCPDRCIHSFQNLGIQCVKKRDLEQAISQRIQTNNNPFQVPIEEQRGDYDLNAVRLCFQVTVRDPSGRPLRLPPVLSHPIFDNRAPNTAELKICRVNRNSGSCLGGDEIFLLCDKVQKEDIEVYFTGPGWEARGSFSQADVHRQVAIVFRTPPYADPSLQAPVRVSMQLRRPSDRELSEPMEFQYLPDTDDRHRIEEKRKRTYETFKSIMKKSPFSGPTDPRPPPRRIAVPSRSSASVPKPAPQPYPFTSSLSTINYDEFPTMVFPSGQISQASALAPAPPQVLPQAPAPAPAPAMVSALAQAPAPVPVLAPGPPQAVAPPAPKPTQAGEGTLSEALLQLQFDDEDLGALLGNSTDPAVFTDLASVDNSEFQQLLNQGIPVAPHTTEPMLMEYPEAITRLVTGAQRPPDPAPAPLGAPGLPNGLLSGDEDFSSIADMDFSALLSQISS
UniProt P19838, residues 1-436: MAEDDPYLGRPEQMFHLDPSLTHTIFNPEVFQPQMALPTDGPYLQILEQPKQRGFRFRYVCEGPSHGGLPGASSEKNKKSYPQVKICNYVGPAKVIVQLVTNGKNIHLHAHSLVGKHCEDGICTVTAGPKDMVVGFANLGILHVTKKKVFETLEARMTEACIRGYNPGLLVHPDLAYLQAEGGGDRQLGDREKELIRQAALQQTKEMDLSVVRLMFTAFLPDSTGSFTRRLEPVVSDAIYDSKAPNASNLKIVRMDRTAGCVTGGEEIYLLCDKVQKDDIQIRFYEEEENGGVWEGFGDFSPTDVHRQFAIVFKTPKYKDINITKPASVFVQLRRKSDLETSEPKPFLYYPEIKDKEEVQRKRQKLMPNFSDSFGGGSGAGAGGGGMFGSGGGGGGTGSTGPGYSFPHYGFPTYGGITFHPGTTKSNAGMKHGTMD
UniProt P52294: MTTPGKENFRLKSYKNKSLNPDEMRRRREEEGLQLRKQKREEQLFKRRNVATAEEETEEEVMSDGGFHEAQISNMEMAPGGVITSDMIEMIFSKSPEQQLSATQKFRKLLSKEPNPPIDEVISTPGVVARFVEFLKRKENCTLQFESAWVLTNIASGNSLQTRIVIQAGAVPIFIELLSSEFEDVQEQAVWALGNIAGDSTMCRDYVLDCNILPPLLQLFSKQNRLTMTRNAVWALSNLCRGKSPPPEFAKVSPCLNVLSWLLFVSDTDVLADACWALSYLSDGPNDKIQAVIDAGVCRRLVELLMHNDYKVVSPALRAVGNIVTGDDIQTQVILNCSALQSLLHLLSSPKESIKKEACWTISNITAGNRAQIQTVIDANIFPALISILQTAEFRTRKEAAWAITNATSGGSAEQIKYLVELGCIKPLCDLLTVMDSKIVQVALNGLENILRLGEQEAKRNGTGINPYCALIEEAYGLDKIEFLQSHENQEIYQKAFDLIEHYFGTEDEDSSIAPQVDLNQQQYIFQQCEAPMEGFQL
UniProt Q04759: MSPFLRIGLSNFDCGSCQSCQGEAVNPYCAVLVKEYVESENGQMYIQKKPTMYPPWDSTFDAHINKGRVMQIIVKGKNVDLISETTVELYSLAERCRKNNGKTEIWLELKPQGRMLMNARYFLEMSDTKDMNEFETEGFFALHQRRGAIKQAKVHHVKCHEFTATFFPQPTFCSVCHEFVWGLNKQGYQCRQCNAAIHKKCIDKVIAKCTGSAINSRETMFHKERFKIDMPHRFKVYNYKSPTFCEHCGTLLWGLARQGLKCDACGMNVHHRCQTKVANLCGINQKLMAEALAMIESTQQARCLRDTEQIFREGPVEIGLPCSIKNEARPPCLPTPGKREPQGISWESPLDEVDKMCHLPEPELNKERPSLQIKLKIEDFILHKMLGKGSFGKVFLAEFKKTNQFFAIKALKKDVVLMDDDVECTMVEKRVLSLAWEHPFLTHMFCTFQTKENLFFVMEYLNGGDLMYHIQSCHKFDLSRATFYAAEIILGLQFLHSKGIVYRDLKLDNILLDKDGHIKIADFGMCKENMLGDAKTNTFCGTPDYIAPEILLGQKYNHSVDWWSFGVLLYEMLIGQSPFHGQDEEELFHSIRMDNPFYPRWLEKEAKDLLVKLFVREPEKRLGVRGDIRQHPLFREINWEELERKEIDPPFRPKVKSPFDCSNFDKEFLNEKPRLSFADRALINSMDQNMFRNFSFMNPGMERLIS

Assays:
[1] = biological target: myc-p65 (human) (UniProt Q04206); experiment: co-immunoprecipitation from HEK293T lysate: anti-myc agarose pull-down, western blot with anti-FLAG M2
[2] = biological target: myc-p50 (human) (UniProt P19838); experiment: as above
[3] = biological target: myc-p65 (human) (UniProt Q04206); experiment: co-immunoprecipitation from HEK293T cells, western blot (figure legend)
[4] = biological target: myc-p50 (human) (UniProt P19838); experiment: as above
[5] = biological target: FLAG-KPNA1 (human) (UniProt P52294); experiment: co-immunoprecipitation from HEK293T lysate: anti-FLAG M2 agarose pull-down, western blot with c-Myc (9E10)
[6] = biological target: FLAG-KPNA1 (human) (UniProt P52294); experiment: co-immunoprecipitation from HEK293T cells, western blot (figure legend)

Measured: binding

FLAG-KPNA1 (from UniProt P52294 1-538)
binds: [1] | [2] | [3] | [4]

PKC theta-myc-His (from UniProt Q04759 1-706) (enzyme)
binds: [5] | [6]
